Patent publication US20130190248A1 (AGENSYS, INC., priority 2011, published 2013)

Assay: general procedure: solution-phase peptide synthesis; DEPC/DIEA; HATU/HOBT/DIEA
Conditions: TFA salt

Substance	step yield (late stage modification step) [% yield]	step yield (coupling step) [% yield]	further results
4-Amino-N—((S)-1-(((3R,4S,5S)-3-methoxy-1-((S)-2-((1R,2R)-1-methoxy-2-methyl-3-oxo-3-((2-(pyridin-2-yl)ethyl)amino)propyl)pyrrolidin-1-yl)-5-methyl-1-oxoheptan-4-yl)(methyl)amino)-3-methyl-1-oxobutan-2-yl)benzamide, TFA salt	91	–	–
(S)—N-((3R,4S,5S)-1-((S)-2-((1R,2R)-3-((2-(1H-Imidazol-4-yl)ethyl)amino)-1-methoxy-2-methyl-3-oxopropyl)pyrrolidin-1-yl)-3-methoxy-5-methyl-1-oxoheptan-4-yl)-N,3-dimethyl-2-((S)-3-methyl-2-(methylamino)butanamido)butanamide, TFA salt	51	–	–
(S)—N-((3R,4S,5S)-1-((S)-2-((1R,2R)-3-((2-Aminoethyl)amino)-1-methoxy-2-methyl-3-oxopropyl)pyrrolidin-1-yl)-3-methoxy-5-methyl-1-oxoheptan-4-yl)-2-((S)-2-(dimethylamino)-3-methylbutanamido)-N,3-dimethylbutanamide, TFA salt	76	–	–
Fmoc-MeVal-Val-Dil-Dap-[2-(1H-imidazol-4-yl)ethyl]amine	–	1	–
N-Boc-4-Abz-Val-Dil-Dap-3-(2-aminoethyl)pyridine	–	70	–
N—((S)-1-(((3R,4S,5S)-1-((S)-2-((1R,2R)-3-((2-(1H-Imidazol-4-yl)ethyl)amino)-1-methoxy-2-methyl-3-oxopropyl)pyrrolidin-1-yl)-3-methoxy-5-methyl-1-oxoheptan-4-yl)(methyl)amino)-3-methyl-1-oxobutan-2-yl)-4-aminobenzamide, TFA salt	–	–	step yield (purification step): 70% yield
